In the supplement of paper PMC12819154, “High-throughput peptide-centric local stability assay extends protein–ligand identification to membrane proteins, tissues and bacteria” (Nature Structural & Molecular Biology, 2025):
The other results are listed elsewhere or left out. Most values lie at the level of the controls, where differences are scatter.

Chains of the proteins cited; added tags and fusions are not shown. Lines headed by an entry give the natural chain unless they say otherwise; changes in a name come on top.
UniProt O00116: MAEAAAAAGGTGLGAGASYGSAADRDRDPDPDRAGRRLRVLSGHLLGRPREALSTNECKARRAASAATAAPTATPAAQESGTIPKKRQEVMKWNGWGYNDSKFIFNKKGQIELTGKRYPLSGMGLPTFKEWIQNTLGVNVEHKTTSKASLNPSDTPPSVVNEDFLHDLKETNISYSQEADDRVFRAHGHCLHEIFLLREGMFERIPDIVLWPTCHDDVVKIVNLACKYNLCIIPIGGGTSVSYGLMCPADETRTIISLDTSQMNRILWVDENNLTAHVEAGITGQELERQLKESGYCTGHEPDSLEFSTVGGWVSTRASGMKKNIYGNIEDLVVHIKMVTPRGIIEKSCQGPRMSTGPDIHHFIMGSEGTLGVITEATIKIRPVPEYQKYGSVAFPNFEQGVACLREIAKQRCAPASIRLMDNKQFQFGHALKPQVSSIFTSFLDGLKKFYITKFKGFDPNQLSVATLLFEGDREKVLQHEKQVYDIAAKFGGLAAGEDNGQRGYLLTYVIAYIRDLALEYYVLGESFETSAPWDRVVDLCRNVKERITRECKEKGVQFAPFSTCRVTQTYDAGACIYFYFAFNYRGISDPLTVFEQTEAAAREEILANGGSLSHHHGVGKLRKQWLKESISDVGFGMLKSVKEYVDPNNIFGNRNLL
UniProt A8MW92: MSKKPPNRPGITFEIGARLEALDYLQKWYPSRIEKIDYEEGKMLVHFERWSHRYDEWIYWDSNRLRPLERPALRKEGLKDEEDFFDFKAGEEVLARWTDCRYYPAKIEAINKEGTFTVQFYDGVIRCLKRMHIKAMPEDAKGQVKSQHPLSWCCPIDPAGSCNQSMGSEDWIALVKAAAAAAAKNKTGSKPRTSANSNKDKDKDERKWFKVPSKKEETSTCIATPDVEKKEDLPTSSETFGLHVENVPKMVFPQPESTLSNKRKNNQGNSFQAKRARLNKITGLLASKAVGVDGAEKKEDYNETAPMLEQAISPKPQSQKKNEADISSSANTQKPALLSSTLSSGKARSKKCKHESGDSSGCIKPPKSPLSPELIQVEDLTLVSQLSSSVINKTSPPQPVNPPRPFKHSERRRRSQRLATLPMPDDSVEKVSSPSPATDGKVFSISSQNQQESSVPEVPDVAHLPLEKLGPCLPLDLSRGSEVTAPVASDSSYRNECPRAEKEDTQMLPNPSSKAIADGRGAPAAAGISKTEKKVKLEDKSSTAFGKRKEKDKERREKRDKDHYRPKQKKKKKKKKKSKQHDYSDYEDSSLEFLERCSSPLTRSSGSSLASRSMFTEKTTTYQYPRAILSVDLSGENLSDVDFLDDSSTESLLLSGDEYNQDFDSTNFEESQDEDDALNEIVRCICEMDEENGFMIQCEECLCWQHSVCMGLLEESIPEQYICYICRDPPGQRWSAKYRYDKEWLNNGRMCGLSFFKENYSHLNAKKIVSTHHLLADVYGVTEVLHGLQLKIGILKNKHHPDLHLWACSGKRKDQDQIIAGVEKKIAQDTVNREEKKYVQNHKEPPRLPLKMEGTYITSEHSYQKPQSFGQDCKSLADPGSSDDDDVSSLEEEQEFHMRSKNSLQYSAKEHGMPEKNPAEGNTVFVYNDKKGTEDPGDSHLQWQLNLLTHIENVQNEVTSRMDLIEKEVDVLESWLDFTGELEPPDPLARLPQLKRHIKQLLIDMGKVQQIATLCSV
UniProt O00566: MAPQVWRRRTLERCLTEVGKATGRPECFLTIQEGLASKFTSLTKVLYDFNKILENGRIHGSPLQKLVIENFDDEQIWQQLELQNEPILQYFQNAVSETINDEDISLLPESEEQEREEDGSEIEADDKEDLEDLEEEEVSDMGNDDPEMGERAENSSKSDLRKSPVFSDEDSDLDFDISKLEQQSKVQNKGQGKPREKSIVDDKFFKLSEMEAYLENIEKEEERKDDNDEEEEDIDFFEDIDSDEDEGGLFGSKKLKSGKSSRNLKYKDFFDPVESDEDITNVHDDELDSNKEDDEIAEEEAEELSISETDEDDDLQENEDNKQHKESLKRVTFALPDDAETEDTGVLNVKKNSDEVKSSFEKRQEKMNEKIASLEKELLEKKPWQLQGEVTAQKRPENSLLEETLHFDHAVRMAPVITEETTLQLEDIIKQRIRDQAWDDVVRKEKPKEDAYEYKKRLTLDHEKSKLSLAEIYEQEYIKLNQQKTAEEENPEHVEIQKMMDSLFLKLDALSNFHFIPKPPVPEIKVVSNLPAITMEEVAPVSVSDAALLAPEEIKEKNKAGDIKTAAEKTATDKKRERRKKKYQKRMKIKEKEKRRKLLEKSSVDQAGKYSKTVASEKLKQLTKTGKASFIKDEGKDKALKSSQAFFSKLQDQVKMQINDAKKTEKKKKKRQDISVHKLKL
UniProt A6NIH7: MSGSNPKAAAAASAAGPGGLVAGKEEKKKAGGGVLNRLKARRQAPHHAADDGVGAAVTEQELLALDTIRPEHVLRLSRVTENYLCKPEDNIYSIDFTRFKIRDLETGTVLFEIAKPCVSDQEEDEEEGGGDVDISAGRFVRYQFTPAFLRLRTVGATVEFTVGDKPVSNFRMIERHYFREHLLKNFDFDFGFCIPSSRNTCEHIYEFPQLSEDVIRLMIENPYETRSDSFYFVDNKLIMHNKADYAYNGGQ
UniProt O00217, whole entry: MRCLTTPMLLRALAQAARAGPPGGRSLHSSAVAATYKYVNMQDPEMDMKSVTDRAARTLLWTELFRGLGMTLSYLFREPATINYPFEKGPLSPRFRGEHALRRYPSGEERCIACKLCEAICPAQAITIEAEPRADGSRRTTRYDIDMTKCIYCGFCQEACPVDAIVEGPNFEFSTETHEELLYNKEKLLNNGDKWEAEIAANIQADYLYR
UniProt O15258: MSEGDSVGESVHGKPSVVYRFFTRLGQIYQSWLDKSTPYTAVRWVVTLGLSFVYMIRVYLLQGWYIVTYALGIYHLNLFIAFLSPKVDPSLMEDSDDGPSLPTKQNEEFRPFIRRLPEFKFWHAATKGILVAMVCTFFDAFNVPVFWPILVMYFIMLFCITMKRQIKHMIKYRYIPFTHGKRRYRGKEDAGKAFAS
UniProt A6NF01, whole entry: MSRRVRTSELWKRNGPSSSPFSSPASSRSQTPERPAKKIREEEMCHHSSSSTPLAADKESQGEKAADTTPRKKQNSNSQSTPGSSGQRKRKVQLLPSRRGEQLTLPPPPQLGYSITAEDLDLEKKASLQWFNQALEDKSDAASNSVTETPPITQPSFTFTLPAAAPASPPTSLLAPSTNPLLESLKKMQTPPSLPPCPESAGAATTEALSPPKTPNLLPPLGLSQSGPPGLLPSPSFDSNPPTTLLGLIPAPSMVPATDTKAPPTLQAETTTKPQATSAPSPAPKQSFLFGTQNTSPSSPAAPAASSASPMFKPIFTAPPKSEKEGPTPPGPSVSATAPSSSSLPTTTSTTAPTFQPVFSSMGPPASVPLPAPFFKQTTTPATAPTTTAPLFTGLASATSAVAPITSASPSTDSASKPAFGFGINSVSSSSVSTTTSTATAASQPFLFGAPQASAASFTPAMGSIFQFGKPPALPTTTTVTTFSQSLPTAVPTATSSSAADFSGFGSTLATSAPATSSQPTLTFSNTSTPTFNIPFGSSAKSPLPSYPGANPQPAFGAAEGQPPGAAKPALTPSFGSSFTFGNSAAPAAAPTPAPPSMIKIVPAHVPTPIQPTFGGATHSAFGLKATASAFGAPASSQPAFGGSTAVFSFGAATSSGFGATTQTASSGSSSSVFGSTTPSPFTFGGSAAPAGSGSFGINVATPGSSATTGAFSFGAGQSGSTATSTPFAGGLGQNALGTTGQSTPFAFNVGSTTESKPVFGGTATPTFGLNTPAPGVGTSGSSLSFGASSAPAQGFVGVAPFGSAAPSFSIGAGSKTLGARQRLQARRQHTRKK

compound: CN[C@@H]1C[C@H]2O[C@@](C)([C@@H]1OC)n1c3ccccc3c3c4c(c5c6ccccc6n2c5c31)C(=O)NC4 [staurosporine]; assay: log2 fold change of tryptic peptide abundance, ligand vs vehicle (limited proteolysis) (log2 ratio); higher = more trypsin-susceptible (destabilized); settings: ligand concentration: 20 uM; sample: K562 cleared lysate; digestion: 4 min, 22 C (HT-PELSA RT4min, Orbitrap Astral)

Target | log2 fold change
AGPS (peptide sequence: ESISDVGFGMLK, peptide start residue: 629) (UniProt O00116) | 0.142
UniProt A8MW92 (peptide sequence: NNQGNSFQAK, peptide start residue: 265) | -0.661
MPHOSPH10 (peptide sequence: TAEEENPEHVEIQK, peptide start residue: 485) (UniProt O00566) | -0.165
UNC119B (peptide sequence: AAAAASAAGPGGLVAGKEEKK, peptide start residue: 8) (UniProt A6NIH7) | -0.0838
NDUFS8 (peptide sequence: GLGMTLSYLFR, peptide start residue: 67) (UniProt O00217) | -0.129
RER1 (peptide sequence: YIPFTHGKR, peptide start residue: 174) (UniProt O15258) | 0.227
UniProt A6NF01 (peptide sequence: IVPAHVPTPIQPTFGGATHSAFGLK, peptide start residue: 996) | 0.0719
